Among the test systems are SARS-CoV-2 5_SL5 RNA; SARS-CoV-2 3_SL3base RNA; SARS-CoV-2 5'-UTR RNA; SARS-CoV-2 3_s2m RNA; SARS-CoV-2 5_SL1 RNA; SARS-CoV-2 5_SL1234 RNA; SARS-CoV-2 5_SL4 RNA; SARS-CoV-2 5_SL5b+c RNA.
What all share (assay): waterLOGSY factor (bound vs free ligand) (ratio); higher = stronger binding
Conditions in all cases: RNA concentration 10 µM; fragment concentration 200 µM; 293 K

Some of the results follow. Most values come without repeats; read them as rough.

Take `O=C(Nc1cccnc1)c1cnn2cccnc12`: the waterLOGSY factor with SARS-CoV-2 5_SL5 RNA was found to be 1.49.

For `O=C(Nc1ccon1)c1cccc(Cl)c1`, the waterLOGSY factor came to 1.45 in the assay with SARS-CoV-2 3_SL3base RNA, 2.62 in the assay with SARS-CoV-2 5'-UTR RNA and 1.4 in the assay on SARS-CoV-2 5_SL5 RNA.

For `COc1ccc(NC(=O)CN)cc1`, the waterLOGSY factor in the assay on SARS-CoV-2 5'-UTR RNA is 1.42.

`CNC(=O)c1nc2ccccc2c(=O)[nH]1`: in the assay on SARS-CoV-2 5'-UTR RNA, the waterLOGSY factor was 1.66.

Take `Cc1cc(N2CCNCC2)nc(C)n1`: the waterLOGSY factor in the assay on SARS-CoV-2 5'-UTR RNA turned out to be 1.71.

For `CNC(=O)Nc1nc2ccc(OC)cc2s1`, the waterLOGSY factor in the assay with SARS-CoV-2 3_s2m RNA was determined as 0.875; with SARS-CoV-2 5_SL1 RNA, 0.421; in the assay with SARS-CoV-2 5_SL1234 RNA, 1.12; in the assay on SARS-CoV-2 5_SL4 RNA, 0.65.

As to `CC(=O)Nc1ccc(-c2csc(N)n2)cc1`, the values for the waterLOGSY factor in the assay on SARS-CoV-2 5'-UTR RNA and with SARS-CoV-2 5_SL5 RNA were 8 and 1.8, respectively.

With `Cc1ccccc1OCC(=O)Nc1ccccc1`, in the assay with SARS-CoV-2 5_SL5 RNA, the waterLOGSY factor came to 1.35.

As for `CC(N)c1ccc(-c2cncnc2)cc1` (stereo not given), in the assay on SARS-CoV-2 5'-UTR RNA, the waterLOGSY factor worked out at 3.11.

As for `Cc1c(Cl)cccc1NC(=O)CN.Cl`, in the assay with SARS-CoV-2 5'-UTR RNA, the waterLOGSY factor was 2.31.

On to `COc1ccc(CN)cc1OC`, for which the waterLOGSY factor in the assay on SARS-CoV-2 5_SL5b+c RNA came to 0.76.

With `CC(C)c1ccc(C(=O)Nc2nncs2)cc1`, in the assay on SARS-CoV-2 5_SL5 RNA, the waterLOGSY factor amounted to 1.25.

As for `c1ccc(NCC2CCNC2)nc1` (stereo not given), the waterLOGSY factor in the assay with SARS-CoV-2 5'-UTR RNA was 1.93; in the assay on SARS-CoV-2 5_SL5b+c RNA, 0.9.

Consider `Cc1ccc(-c2noc(CNC(C)C)n2)cc1`, for which the waterLOGSY factor with SARS-CoV-2 3_SL3base RNA was found to be 1.3; with SARS-CoV-2 5_SL5 RNA, 1.26.

Consider `CCNCc1cccc2[nH]ccc12`, for which the waterLOGSY factor in the assay on SARS-CoV-2 5'-UTR RNA is 1.83.

For the compound `COc1ccc2[nH]cc(CN(C)C)c2c1`, the waterLOGSY factor in the assay with SARS-CoV-2 5'-UTR RNA came to 1.48.

`c1ccc(CCNc2nc3ccccc3[nH]2)cc1`: the waterLOGSY factor in the assay with SARS-CoV-2 5'-UTR RNA was determined as 2.77.

Take `O=C(OCc1ccc(Cl)cc1)c1cccnc1`: the waterLOGSY factor in the assay on SARS-CoV-2 5'-UTR RNA turned out to be 0.797.

In the case of `Cc1ccccc1OCC(=O)Nc1ncccn1`, in the assay on SARS-CoV-2 5'-UTR RNA, the waterLOGSY factor came out at 1.59.

In the case of `O=C(Nc1ccccn1)c1cnccn1`, the waterLOGSY factor in the assay on SARS-CoV-2 5'-UTR RNA was 1.17; with SARS-CoV-2 5_SL5 RNA, 1.15.

Take `OCc1ccc(-n2cnc3ccccc32)cc1`: in the assay on SARS-CoV-2 5'-UTR RNA, the waterLOGSY factor came to 1.52.

As for `CNCc1cnn(-c2ccccc2)c1`, the results for the waterLOGSY factor in the assay with SARS-CoV-2 5'-UTR RNA and with SARS-CoV-2 5_SL5b+c RNA were 1.46 and 0.79, respectively.

On to `Cl.NCc1cc(-c2ccccc2)no1`, for which the waterLOGSY factor with SARS-CoV-2 3_s2m RNA is 1; in the assay with SARS-CoV-2 5'-UTR RNA it was 5.09.

In the case of `c1nc(N2CCC2)c2[nH]cnc2n1`, the waterLOGSY factor in the assay with SARS-CoV-2 5'-UTR RNA was determined as 1.11.

The values above are taken from the supplement of paper PMC8426693.
